# Source: the supplement of paper PMC12823440, “Inhibitors supercharge kinase turnover through native proteolytic circuits” (Nature, 2025)
# By UniProt entry, the sequences of proteins in these tests, tags left out. Where a name states a change or a piece, a line headed by the entry shows the natural chain unless it says otherwise.
# UniProt P07949, whole entry, looked up: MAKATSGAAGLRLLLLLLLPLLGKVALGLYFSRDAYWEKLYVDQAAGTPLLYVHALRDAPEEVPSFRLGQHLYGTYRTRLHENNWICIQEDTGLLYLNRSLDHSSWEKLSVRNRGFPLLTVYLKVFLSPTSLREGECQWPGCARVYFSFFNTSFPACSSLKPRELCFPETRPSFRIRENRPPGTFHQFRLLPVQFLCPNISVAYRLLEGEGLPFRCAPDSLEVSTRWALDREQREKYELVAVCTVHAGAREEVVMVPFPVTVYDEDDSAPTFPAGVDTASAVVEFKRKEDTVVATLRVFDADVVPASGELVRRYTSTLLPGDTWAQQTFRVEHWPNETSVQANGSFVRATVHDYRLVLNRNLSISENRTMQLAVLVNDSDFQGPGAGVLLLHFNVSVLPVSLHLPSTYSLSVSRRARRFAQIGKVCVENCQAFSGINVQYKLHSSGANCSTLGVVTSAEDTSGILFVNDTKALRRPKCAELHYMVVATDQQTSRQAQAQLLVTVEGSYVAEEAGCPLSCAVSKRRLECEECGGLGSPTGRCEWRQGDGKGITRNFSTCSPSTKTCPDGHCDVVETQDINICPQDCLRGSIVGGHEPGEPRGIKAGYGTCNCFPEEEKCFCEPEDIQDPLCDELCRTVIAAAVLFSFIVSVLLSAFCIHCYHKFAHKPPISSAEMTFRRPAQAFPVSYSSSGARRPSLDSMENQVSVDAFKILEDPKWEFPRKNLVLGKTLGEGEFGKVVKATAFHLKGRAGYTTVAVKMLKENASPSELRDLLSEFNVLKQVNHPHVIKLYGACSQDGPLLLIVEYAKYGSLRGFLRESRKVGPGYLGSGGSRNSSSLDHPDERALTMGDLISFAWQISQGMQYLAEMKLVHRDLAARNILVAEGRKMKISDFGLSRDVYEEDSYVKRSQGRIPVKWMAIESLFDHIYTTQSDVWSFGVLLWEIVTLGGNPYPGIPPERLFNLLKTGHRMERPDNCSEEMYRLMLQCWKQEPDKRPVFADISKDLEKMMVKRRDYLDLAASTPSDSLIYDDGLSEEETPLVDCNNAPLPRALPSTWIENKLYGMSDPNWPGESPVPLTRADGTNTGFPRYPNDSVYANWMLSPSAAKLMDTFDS
# UniProt P07949, whole entry M918T, looked up: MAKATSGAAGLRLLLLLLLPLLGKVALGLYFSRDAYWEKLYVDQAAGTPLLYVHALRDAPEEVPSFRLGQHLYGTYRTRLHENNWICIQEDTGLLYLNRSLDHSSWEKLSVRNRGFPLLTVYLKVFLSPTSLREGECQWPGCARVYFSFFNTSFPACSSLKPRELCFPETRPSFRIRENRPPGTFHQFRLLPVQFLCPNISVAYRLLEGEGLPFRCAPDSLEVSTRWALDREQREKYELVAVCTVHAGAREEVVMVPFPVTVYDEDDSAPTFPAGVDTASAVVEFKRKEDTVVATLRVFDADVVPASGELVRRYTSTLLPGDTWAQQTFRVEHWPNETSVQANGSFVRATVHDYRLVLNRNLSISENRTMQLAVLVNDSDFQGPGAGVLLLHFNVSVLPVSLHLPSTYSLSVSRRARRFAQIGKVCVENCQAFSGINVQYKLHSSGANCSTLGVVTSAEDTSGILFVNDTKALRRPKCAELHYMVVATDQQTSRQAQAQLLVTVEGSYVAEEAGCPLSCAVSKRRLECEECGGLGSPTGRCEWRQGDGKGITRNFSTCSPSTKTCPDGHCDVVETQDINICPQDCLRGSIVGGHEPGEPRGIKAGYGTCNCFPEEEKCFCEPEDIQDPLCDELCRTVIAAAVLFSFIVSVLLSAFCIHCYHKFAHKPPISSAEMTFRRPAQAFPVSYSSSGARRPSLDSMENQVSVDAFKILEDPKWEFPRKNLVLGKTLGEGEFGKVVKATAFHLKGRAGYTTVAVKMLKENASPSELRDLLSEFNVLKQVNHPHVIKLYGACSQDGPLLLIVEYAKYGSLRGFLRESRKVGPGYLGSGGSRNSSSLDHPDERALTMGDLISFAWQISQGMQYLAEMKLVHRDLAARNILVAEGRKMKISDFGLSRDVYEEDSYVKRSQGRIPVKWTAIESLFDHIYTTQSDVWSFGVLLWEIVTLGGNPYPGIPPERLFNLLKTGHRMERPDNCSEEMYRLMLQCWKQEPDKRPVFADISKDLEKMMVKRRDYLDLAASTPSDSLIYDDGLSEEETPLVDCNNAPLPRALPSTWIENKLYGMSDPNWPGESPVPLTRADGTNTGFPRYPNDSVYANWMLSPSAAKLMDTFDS
# UniProt Q9BRS2: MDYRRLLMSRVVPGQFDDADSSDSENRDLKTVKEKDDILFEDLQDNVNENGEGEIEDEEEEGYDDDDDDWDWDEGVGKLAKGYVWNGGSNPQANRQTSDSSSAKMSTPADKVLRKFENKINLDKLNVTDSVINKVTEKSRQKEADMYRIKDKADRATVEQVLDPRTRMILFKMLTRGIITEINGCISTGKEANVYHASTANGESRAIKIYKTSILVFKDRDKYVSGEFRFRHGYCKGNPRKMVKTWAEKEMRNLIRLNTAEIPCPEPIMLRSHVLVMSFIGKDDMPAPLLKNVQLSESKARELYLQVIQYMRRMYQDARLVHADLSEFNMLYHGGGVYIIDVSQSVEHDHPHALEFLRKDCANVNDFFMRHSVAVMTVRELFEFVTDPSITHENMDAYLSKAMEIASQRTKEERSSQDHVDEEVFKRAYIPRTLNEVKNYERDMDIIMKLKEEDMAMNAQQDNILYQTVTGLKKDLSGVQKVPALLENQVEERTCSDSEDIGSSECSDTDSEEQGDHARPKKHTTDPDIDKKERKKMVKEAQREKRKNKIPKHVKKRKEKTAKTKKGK
# UniProt Q15208: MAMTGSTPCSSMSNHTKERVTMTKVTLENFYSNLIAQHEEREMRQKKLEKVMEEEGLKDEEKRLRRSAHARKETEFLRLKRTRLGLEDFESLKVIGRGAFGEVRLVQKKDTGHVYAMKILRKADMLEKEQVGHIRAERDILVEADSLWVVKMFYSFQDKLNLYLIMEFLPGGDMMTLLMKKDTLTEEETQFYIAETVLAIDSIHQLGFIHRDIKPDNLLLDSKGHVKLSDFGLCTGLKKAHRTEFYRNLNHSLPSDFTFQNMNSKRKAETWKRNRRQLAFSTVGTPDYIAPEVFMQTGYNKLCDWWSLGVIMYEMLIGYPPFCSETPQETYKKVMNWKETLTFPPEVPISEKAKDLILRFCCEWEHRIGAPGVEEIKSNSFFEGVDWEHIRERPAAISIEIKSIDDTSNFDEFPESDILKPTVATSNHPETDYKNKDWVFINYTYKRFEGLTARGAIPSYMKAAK
# UniProt Q6PHR2: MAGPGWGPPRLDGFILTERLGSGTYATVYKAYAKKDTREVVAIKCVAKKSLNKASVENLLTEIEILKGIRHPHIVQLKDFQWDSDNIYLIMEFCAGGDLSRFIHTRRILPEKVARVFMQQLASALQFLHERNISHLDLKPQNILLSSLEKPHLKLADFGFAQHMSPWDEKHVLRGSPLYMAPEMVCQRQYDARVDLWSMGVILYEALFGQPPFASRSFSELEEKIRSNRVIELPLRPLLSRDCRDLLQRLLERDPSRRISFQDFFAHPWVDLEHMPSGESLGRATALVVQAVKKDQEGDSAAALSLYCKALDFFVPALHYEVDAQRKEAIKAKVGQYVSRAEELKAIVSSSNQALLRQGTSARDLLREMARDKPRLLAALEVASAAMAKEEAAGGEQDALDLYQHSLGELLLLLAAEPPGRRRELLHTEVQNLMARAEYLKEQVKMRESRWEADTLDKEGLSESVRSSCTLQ
# UniProt P07947, whole entry, looked up: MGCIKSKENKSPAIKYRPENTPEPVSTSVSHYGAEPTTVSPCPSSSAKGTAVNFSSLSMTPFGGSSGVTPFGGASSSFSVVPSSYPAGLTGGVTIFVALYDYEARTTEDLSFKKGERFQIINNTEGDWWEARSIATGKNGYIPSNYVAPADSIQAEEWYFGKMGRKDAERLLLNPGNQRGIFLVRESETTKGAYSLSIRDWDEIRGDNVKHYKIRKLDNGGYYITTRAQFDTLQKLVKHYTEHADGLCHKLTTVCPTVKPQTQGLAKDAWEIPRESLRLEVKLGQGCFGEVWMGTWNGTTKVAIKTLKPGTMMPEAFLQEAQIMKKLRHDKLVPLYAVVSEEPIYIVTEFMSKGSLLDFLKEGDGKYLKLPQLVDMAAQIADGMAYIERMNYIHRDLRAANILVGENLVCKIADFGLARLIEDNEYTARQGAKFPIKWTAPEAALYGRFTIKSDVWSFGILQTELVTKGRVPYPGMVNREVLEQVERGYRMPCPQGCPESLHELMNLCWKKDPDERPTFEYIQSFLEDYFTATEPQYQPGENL
# UniProt P43403: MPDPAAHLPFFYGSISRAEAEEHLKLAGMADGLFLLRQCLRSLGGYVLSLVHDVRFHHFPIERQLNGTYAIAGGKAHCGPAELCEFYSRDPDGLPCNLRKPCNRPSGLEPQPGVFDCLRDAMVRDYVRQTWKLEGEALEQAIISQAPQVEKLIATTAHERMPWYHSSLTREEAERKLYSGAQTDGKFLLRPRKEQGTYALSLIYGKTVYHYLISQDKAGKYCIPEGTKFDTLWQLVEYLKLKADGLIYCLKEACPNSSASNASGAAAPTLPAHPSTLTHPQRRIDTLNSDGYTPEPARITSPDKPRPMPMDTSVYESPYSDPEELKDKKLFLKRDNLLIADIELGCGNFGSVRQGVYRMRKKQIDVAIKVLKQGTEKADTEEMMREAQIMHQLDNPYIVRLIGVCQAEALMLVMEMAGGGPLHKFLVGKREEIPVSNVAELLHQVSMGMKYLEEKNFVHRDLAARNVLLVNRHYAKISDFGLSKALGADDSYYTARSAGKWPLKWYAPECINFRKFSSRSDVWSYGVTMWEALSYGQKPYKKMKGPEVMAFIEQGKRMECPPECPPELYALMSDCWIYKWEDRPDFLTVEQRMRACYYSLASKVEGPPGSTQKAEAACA
# UniProt P00519, whole entry: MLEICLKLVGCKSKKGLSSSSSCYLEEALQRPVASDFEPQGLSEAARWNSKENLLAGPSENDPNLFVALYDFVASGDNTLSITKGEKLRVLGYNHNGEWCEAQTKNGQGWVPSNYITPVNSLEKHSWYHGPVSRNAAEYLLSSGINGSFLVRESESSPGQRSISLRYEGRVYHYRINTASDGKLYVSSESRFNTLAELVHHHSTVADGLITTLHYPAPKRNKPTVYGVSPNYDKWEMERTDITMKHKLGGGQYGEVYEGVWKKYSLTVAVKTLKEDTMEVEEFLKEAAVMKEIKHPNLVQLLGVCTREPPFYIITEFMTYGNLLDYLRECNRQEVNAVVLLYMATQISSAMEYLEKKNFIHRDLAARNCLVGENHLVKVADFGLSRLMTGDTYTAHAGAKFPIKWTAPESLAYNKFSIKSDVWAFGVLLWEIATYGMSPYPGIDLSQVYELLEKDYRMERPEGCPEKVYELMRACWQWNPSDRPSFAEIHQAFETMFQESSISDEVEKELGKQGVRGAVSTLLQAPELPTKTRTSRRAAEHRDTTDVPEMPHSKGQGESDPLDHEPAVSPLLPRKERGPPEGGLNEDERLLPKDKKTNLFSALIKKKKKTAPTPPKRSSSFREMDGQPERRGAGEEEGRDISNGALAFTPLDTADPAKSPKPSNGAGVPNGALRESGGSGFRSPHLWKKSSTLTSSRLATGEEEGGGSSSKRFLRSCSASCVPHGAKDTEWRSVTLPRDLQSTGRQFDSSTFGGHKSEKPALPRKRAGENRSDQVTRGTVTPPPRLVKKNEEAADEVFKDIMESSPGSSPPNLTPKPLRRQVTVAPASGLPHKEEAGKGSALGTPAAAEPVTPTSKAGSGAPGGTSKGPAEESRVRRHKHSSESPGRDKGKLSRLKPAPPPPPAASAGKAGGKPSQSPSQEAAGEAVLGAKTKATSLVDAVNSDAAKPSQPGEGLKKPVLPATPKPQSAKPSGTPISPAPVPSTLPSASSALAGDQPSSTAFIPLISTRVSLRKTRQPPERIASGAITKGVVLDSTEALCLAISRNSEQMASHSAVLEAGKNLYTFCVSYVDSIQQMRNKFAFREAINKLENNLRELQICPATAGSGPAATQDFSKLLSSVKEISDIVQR
# UniProt P31749: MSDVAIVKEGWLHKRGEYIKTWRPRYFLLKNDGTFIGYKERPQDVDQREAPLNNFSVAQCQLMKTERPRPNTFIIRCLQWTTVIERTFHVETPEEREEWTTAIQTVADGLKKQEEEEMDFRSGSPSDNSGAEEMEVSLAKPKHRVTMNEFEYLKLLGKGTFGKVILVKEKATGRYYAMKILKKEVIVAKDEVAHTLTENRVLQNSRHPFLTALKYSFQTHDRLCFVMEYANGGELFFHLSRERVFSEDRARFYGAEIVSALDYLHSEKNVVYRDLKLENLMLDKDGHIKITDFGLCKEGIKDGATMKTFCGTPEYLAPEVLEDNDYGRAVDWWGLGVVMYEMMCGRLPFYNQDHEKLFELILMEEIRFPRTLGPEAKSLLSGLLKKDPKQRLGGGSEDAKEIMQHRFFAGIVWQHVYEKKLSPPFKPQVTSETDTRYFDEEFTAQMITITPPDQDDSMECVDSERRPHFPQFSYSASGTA
# The list shows a part of the results. The calls rarely recur for the same compound in another form.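 In K562 cells expressing nanoluciferase-fused kinases, luminescence was recorded at 4 h intervals between 2 and 18 h, normalized as percent of control with DMSO at 100% and a positive control at 0%. A significant (2 sigma) signal drop marks a time point as decreased. The authors' rule for a hit is not shown and takes in more than the number of time points.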
# Key:
# Conditions in all cases: K562; 2-18 h
# [1] = molecular target: RET (UniProt P07949); assay: kinase-Nluc reporter destabilization hit call (1 = scored as downregulated) (binary); higher = compound decreases kinase abundance
# [2] = molecular target: RET_M918T (clone: RET_mut) (UniProt P07949); assay: as above
# [3] = molecular target: RIOK1 (UniProt Q9BRS2); assay: as above
# [4] = molecular target: RIPK1 (UniProt Q13546); assay: as above
# [5] = molecular target: RIPK2 (UniProt O43353); assay: as above
# [6] = molecular target: ROR2 (UniProt Q01974); assay: as above
# [7] = molecular target: RPS6KA1 (UniProt Q15418); assay: as above
# [8] = molecular target: SPHK1 (UniProt Q9NYA1); assay: as above
# [9] = molecular target: SRC (UniProt P12931); assay: as above
# [10] = molecular target: STK24 (UniProt Q9Y6E0); assay: as above
# [11] = molecular target: STK38 (UniProt Q15208); assay: as above
# [12] = molecular target: SYK (UniProt P43405); assay: as above
# [13] = molecular target: TEC (UniProt P42680); assay: as above
# [14] = molecular target: TYK2 (UniProt P29597); assay: as above
# [15] = molecular target: ULK3 (UniProt Q6PHR2); assay: as above
# [16] = molecular target: YES1 (UniProt P07947); assay: as above
# [17] = molecular target: ZAK (UniProt Q9NYL2); assay: as above
# [18] = molecular target: ZAP70 (UniProt P43403); assay: as above
# [19] = molecular target: ABL1 (UniProt P00519); assay: number of time points (of 5) at which kinase-Nluc abundance scored as decreased, DMSO-normalised (count); higher = more persistent destabilization
# [20] = molecular target: AKT1 (UniProt P31749); assay: as above
Structure (SMILES),kinase-Nluc reporter destabilization hit call [1],kinase-Nluc reporter destabilization hit call [2],kinase-Nluc reporter destabilization hit call [3],kinase-Nluc reporter destabilization hit call [4],kinase-Nluc reporter destabilization hit call [5],kinase-Nluc reporter destabilization hit call [6],kinase-Nluc reporter destabilization hit call [7],kinase-Nluc reporter destabilization hit call [8],kinase-Nluc reporter destabilization hit call [9],kinase-Nluc reporter destabilization hit call [10],kinase-Nluc reporter destabilization hit call [11],kinase-Nluc reporter destabilization hit call [12],kinase-Nluc reporter destabilization hit call [13],kinase-Nluc reporter destabilization hit call [14],kinase-Nluc reporter destabilization hit call [15],kinase-Nluc reporter destabilization hit call [16],kinase-Nluc reporter destabilization hit call [17],kinase-Nluc reporter destabilization hit call [18],number of time points [19],number of time points [20]
Cc1cccc(Cn2nc(C3CC3)c3c(NC(=O)c4cnc5cc(OCCN6CCN(C)CC6)ccn45)cccc32)n1 (10 µM),inactive: 0,inactive: 0,inactive: 0,inactive: 0,inactive: 0,inactive: 0,inactive: 0,inactive: 0,inactive: 0,inactive: 0,inactive: 0,inactive: 0,inactive: 0,inactive: 0,inactive: 0,inactive: 0,inactive: 0,inactive: 0,0,0
COc1cc(OC)cc(-c2cc3cnc(N)nc3nc2NC(=O)NC(C)(C)C)c1 (10 µM),inactive: 0,inactive: 0,inactive: 0,inactive: 0,inactive: 0,inactive: 0,inactive: 0,inactive: 0,inactive: 0,inactive: 0,inactive: 0,inactive: 0,inactive: 0,inactive: 0,inactive: 0,inactive: 0,inactive: 0,inactive: 0,0,0
C=CC(=O)N1CCN(CCCn2c(=O)c(-c3c(Cl)c(OC)cc(OC)c3Cl)cc3cnc(NC)nc32)CC1 (10 µM),inactive: 0,inactive: 0,inactive: 0,inactive: 0,inactive: 0,inactive: 0,inactive: 0,inactive: 0,inactive: 0,inactive: 0,inactive: 0,inactive: 0,inactive: 0,inactive: 0,inactive: 0,inactive: 0,inactive: 0,inactive: 0,0,0
CC(C)Oc1cc(Nc2nc(N[C@@H](C)c3ccc(F)cn3)ncc2Cl)n[nH]1 (10 µM),inactive: 0,inactive: 0,inactive: 0,inactive: 0,inactive: 0,inactive: 0,inactive: 0,inactive: 0,inactive: 0,inactive: 0,inactive: 0,inactive: 0,inactive: 0,inactive: 0,inactive: 0,inactive: 0,inactive: 0,inactive: 0,0,0
COc1cc2ncn(-c3cc(OCc4ccccc4C(F)(F)F)c(C(N)=O)s3)c2cc1OC (10 µM),inactive: 0,inactive: 0,inactive: 0,inactive: 0,inactive: 0,inactive: 0,inactive: 0,inactive: 0,inactive: 0,inactive: 0,inactive: 0,inactive: 0,inactive: 0,inactive: 0,inactive: 0,inactive: 0,inactive: 0,inactive: 0,0,0
CC[C@H](CO)Nc1nc(NCc2ccccc2)c2ncn(C(C)C)c2n1 [Seliciclib] (10 µM),inactive: 0,inactive: 0,inactive: 0,inactive: 0,inactive: 0,inactive: 0,inactive: 0,inactive: 0,inactive: 0,inactive: 0,inactive: 0,inactive: 0,inactive: 0,inactive: 0,inactive: 0,inactive: 0,inactive: 0,inactive: 0,0,0
COc1cc(OC)c(F)c(COc2cnc(Nc3cnn(CCO)c3)nc2)c1F (2.5 µM),inactive: 0,inactive: 0,inactive: 0,inactive: 0,inactive: 0,inactive: 0,inactive: 0,inactive: 0,inactive: 0,inactive: 0,inactive: 0,inactive: 0,inactive: 0,inactive: 0,inactive: 0,inactive: 0,inactive: 0,inactive: 0,3,0
CN(C)CCOc1ccc(-c2nc(-c3ccncc3)c(-c3ccc4c(c3)CC/C4=N\O)[nH]2)cc1 (10 µM),inactive: 0,inactive: 0,inactive: 0,inactive: 0,inactive: 0,inactive: 0,inactive: 0,inactive: 0,inactive: 0,inactive: 0,inactive: 0,inactive: 0,inactive: 0,inactive: 0,inactive: 0,inactive: 0,inactive: 0,inactive: 0,0,0
O=c1c(O)c(-c2ccc(O)c(O)c2)oc2cc(O)cc(O)c12 [Quercetin (dihydrate)] (10 µM),inactive: 0,inactive: 0,inactive: 0,inactive: 0,inactive: 0,inactive: 0,inactive: 0,inactive: 0,inactive: 0,inactive: 0,inactive: 0,inactive: 0,inactive: 0,inactive: 0,inactive: 0,inactive: 0,inactive: 0,inactive: 0,0,0
